Measured values taken from US20190389961A1.
No constants are given. Whether binding was seen depends on the method and setting. Some entries that bind do so weakly or less than the wild type.

Legend:
Test in all cases: flow cytometry, Hek-293T cells expressing the mutant
[1] = molecular target: T1, human CD39 mutant 10B (human) (UniProt P49961)
T1 sequence: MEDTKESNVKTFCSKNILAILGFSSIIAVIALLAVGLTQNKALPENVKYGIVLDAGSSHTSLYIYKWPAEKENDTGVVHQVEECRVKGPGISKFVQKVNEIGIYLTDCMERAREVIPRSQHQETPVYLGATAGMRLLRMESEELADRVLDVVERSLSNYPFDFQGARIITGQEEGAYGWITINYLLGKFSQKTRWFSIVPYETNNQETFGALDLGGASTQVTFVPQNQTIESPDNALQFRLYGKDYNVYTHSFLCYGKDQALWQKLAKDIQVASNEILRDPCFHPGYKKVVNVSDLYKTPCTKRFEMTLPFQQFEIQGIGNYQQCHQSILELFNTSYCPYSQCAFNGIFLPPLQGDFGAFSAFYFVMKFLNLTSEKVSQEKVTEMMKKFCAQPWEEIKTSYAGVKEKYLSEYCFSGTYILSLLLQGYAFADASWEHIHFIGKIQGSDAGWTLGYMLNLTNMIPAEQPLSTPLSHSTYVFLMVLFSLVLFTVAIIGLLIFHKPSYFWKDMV

[2] = molecular target: T2, human CD39 mutant 3 (human) (UniProt P49961)
T2 sequence: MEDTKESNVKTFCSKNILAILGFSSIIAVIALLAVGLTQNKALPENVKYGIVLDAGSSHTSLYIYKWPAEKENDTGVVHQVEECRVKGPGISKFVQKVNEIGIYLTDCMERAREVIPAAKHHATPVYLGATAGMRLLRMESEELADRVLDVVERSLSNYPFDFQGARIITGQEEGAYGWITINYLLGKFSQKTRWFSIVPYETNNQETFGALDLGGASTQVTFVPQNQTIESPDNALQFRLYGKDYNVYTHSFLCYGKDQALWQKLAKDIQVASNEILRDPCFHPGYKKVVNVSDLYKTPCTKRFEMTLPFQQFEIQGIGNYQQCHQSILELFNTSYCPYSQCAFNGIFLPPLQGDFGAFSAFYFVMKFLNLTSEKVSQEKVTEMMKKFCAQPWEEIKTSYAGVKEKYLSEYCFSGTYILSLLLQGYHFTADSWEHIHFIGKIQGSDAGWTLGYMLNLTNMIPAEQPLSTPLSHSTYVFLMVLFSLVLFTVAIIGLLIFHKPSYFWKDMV

[3] = molecular target: T3, human CD39 mutant 17 (human) (UniProt P49961)
T3 sequence: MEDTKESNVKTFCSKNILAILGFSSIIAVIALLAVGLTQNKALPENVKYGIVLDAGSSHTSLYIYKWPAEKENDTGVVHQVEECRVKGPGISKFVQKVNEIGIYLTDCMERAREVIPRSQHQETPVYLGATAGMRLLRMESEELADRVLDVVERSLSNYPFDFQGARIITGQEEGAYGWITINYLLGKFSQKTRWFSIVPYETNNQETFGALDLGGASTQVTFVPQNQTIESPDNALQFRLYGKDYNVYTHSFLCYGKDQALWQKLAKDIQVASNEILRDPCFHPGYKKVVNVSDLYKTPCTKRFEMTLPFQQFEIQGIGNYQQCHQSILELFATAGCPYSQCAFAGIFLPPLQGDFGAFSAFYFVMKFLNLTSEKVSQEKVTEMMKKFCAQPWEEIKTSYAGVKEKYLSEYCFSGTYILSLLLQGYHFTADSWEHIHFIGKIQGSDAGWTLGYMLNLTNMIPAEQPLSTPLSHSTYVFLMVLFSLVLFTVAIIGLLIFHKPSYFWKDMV

[4] = molecular target: T4, human CD39 mutant 13 (human) (UniProt P49961)
T4 sequence: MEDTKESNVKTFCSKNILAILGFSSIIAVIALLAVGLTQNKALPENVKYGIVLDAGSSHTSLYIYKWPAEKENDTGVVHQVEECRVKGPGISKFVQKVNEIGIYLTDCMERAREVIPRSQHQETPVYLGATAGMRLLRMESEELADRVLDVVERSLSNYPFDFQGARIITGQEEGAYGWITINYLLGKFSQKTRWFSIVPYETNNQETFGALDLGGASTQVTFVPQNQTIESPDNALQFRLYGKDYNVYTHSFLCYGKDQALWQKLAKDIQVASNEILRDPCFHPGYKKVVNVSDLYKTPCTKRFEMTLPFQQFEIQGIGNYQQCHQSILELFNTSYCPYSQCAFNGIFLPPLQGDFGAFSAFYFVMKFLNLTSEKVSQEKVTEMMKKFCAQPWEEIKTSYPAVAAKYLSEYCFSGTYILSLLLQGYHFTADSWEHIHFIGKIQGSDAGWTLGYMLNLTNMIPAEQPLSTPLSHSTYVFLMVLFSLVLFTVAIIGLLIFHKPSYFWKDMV

[5] = molecular target: T5, human CD39 mutant 2A (human) (UniProt P49961)
T5 sequence: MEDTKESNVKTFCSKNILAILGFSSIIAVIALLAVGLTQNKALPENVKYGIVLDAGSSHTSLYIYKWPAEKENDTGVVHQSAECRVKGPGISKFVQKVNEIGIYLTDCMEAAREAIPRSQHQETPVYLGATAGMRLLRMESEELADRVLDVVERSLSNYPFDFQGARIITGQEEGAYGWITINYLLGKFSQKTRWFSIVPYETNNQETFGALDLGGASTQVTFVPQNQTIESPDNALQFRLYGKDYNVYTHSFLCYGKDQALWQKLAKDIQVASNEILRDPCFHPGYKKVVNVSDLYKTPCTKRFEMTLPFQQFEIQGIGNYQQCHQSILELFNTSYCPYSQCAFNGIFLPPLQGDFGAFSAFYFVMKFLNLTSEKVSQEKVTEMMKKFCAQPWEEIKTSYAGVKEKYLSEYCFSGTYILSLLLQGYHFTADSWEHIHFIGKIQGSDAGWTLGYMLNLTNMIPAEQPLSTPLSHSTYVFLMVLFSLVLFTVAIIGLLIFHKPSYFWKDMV

Measured: binding

B1: antibody I-399 (antibody, V domains shown)
VH: PVQLQQPGAEVVMPGASVKLSCKASGYTFTSFWMNWMRQRPGQGLEWIGEIDPSDFYTNSNQRFKGKATLTVDKSSSTAYMQLSSLTSEDSAVYFCARGDFGWYFDVWGTGTSVTVSS
VL: EIVLTQSPTTMTSSPGEKITFTCSASSSINSNYLHWYQQKPGFSPKLLIYRTSNLASGVPTRFSGSGSGTSYSLTIGTMEAEDVATYYCQQGSSLPRTFGGGTKLEIK
binds: [1] | [2] | [3] | [4] | [5]
